We go through 39 compounds from PubChem BioAssay AID2685 (National Center for Advancing Translational Sciences (NCATS), 2010).

SMILES strings stand for the structures. This is one part of the list. Further columns of the screen follow, without active or inactive calls. The list favours compounds with an active or inconclusive main result. Words in brackets tell the shape of the fitted curve; partial curves, single points and poor fits give uncertain potencies.

This experiment can be described thus: qHTS Assay for Lipid Storage Modulators in Drosophila S3 Cells.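 As to cell number change: cells counted by Cell Tracker Red CMTPX staining in the red channel.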 To be noted: BODIPY lipid droplet fluorescence, 18-24 h; for cell number change: measured here: cell count max response, cells fed with added oleic acid. Summed up:
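Drosophila S3 cells got compounds at several concentrations plus oleic acid (400 uM solution). Laser-scanning cytometry with 488 nm excitation read lipid droplets at 500-530 nm and cells at 575-640 nm. Percent activity was relative to 20 uM Triacsin C.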

Where [1] appears, read: measured here: cell number channel AC50, cells fed with added oleic acid.
The mark [2] stands for this setting: measured here: lipid fluorescence (Fed channel) AC50, cells fed with added oleic acid.

As for `O=c1c2c3nc4ccccc4nc3n(-c3ccc4c(c3)OCCO4)c2ncn1CC1CCCO1` (configuration not stated), the cell number change worked out at 0.628%.
For `CC(=O)N1N=C2/C(=C/c3ccccc3)CCCC2C1c1ccccc1` (configuration not stated), the cell number change amounted to 6.06%. Further, the half-maximal activity concentration (AC50) under setting [1] is 6.51 µM [rising, single point].
As to `CC1Cc2nc(SCC(=O)NCc3ccco3)n(Cc3ccccc3)c(=O)c2S1` (configuration not stated), the cell number change turned out to be 3.09%. The AC50 under setting [2] was 18.4 µM [rising, single point].
Turning to `CN1CCC(=NNC(=O)CN(c2ccccc2)S(=O)(=O)c2ccccc2)CC1`, the cell number change came out at 12%. Further, the AC50 under setting [1] is 6.51 µM [rising, single point].
Take `COCCCNC(=O)CC(NS(=O)(=O)c1ccc(C)cc1)c1ccc(OC)cc1` (configuration not stated): the cell number change came to 1.71%. Moreover, the concentration at half-maximal activity (AC50) under setting [2] is 20.6 µM [falling, partial curve].
Turning to `Cc1ccc(C(C(=O)NC(C)(C)C)N(CC2CCCO2)C(=O)c2csnn2)cc1` (configuration not stated), the cell number change was -9.21%.
For `Clc1ccc(C2=Nn3c(nnc3-c3cc(-c4ccccc4)n[nH]3)SC2)cc1`, the cell number change is -148%. Also, the concentration at half-maximal activity (AC50) under setting [1] was 23.1 µM [falling, single point]. Under setting [2], the AC50 is 29.1 µM [falling, single point].
Take `CCOc1ccc(/C=C2\SC(=S)N(NS(=O)(=O)c3ccccc3)C2=O)cc1OC`: the cell number change was determined as 11.3%.
`COc1cc2c(cc1NC(=O)c1cncc(Br)c1)oc1ccccc12`: the cell number change stood at 98.7%. In addition, the AC50 under setting [2] was 3.66 µM [rising, partial curve].
Take `CC(=O)NC(Cc1cc(C)ccc1C)C(=O)N1CCN(C(=O)Nc2ccc(C(C)=O)cc2)CC1` (configuration not stated): the AC50 under setting [1] was 6.51 µM [falling, single point] and the AC50 under setting [2] was 6.51 µM [falling, single point].
Regarding `O=C(CSc1nc2[nH]ncc2c(=O)[nH]1)Nc1ccc(OC(F)(F)F)cc1`, the cell number change was -39%. For the same compound, the AC50 under setting [1] is 9.2 µM [falling, partial curve]. For the same compound, under setting [2], the AC50 is 25.9 µM [falling, single point].
For `Cc1cc(OCC(=O)Nc2cccnc2)c2c(C)cc(=O)oc2c1`, the cell number change was -1.47%. The concentration at half-maximal activity (AC50) under setting [2] is 6.51 µM [falling, partial curve, poor fit].
Regarding `O=C(NC(=S)N(CCO)Cc1ccccc1)c1ccc(S(=O)(=O)N2CCCC2)cc1`, the cell number change was -36.4%. Besides, the AC50 under setting [1] was 2.31 µM [falling, full curve].
As for `Cc1ccc(C)c(NC(=O)COC(=O)c2cc3ccccc3oc2=O)c1`, the cell number change stood at 1%. In addition, the AC50 under setting [2] was 0.00517 µM [falling, full curve, poor fit].
For the compound `Cc1csc(SCC(=O)NC(C)c2ccc(F)cc2)n1` (configuration not stated), the cell number change is -9.84%.
Consider `Cc1ccc(Nc2cc(C)nc3c(C)ccc([N+](=O)[O-])c23)cc1`, for which the cell number change was -41.4%. For the same compound, the AC50 under setting [1] was 20.6 µM [falling, single point]. The concentration at half-maximal activity (AC50) under setting [2] was 10.3 µM [falling, partial curve].
Turning to `O=C(CCc1ccccc1)N/N=C/c1cc(Br)ccc1O`, the cell number change was -18.6%. In addition, the AC50 under setting [2] was 29.1 µM [falling, single point].
With `Cc1cc(C)c2c(c1)/C(=N/NC(=O)c1cc(C)oc1C)CCC2`, the cell number change is -26.2%.
Same read-out and setting: the value for `CCOc1ccc(-c2c(C(=O)N/N=C/c3sccc3C)nnn2-c2nonc2N)cc1` was 22%; that for `CCOC(=O)Cn1nnnc1C(CC)N(Cc1cc2ccc(C)cc2[nH]c1=O)C1CCCC1` (configuration not stated) was 19.1%.
Consider `COc1ccc(NC(=O)c2ccc3c(c2)OCCO3)cc1OC`, for which the cell number change turned out to be 7.89%.
For the compound `CC[N+](CC)(CC=C(C)C)CC(=O)OC`, the cell number change is -13.4%. The half-maximal activity concentration (AC50) under setting [2] was 29.1 µM [falling, single point].
`Cc1cc(N)nc(SCC(=O)N2C(C)CCCC2C)n1` (configuration not stated): the cell number change worked out at 9.4%. In addition, the AC50 under setting [2] was 0.0651 µM [falling, full curve, poor fit].
Take `O=C(NCc1ccco1)c1ccc2c(c1)N(Cc1ccccc1)C(=O)CS2`: the cell number change is 82.9%. Moreover, under setting [1], the concentration at half-maximal activity (AC50) was 11.6 µM [rising, partial curve]. Besides, the half-maximal activity concentration (AC50) under setting [2] was 1.16 µM [rising, full curve].
On to `CN1CCN(NC(=O)c2cc(-c3ccc(Br)s3)nc3ccccc23)CC1`, for which the cell number change came to 21.2%.
Regarding `COc1cc(S(=O)(=O)n2ccc(C)n2)c(OC)cc1Cl`, the AC50 was 0.517 µM [rising, full curve] under setting [1] and 0.58 µM [rising, single point] under setting [2].
Turning to `O=C(C1CCCCN1S(=O)(=O)c1ccccc1)N1CCN(Cc2ccccc2)CC1` (configuration not stated), the cell number change came out at 3.38%. In addition, under setting [2], the AC50 was 0.651 µM [falling, single point].
With `Cc1ccc2cccc(S(=O)(=O)n3nc(C)cc3C)c2n1`, the cell number change was -104%. The AC50 under setting [1] was 29.1 µM [falling, single point].
On to `C#CCOCCOCCOCCNc1nc(N2CCN(C(=O)CCCCCCCCCCNC(=O)[C@H](CCCCN)n3cc(CCO)nn3)CC2)nc(N2CCN(C(=O)CCCCCCCCCCNC(=O)[C@@H]([C@H](C)O)n3cc(C)nn3)CC2)n1`, for which the cell number change was -18%. Moreover, the half-maximal activity concentration (AC50) under setting [2] was 29.1 µM [falling, single point].
As for `O=C(Nc1ccccc1N1CCOCC1)C1Cc2ccccc2CN1C(=O)c1ccco1` (configuration not stated), the cell number change came to 9.59%. For the same compound, under setting [1], the AC50 was 2.91 µM [rising, partial curve]. Moreover, the AC50 under setting [2] is 6.51 µM [rising, single point].
In the case of `O=C(COC(=O)C1(c2ccccc2F)CCCC1)NCc1cccs1`, the cell number change is -14.1%. Also, the concentration at half-maximal activity (AC50) under setting [2] is 29.1 µM [falling, single point].
As to `O=S(=O)(c1ccccc1)c1nc(NCc2cccnc2)sc1Cl`, the cell number change is -38.6%. Besides, the AC50 under setting [1] was 20.6 µM [falling, single point].
Consider `COc1cc2c(cc1OC)-c1cc(NC3CCCC3)nc(=O)n1CC2`, for which the cell number change turned out to be 1.89%. Further, under setting [2], the AC50 was 0.461 µM [rising, full curve, poor fit].
As to `O=S(=O)(Nc1ccc2c(c1)OCO2)c1cccc(Br)c1`, the cell number change was 6.66%. Besides, the concentration at half-maximal activity (AC50) under setting [2] was 3.66 µM [falling, full curve].
Consider `O=C(CSc1nnc2ccccn12)Nc1ccc2c(c1)OCCO2`, for which the cell number change was -13.8%.
In the case of `Cc1nc(N/N=C/c2cccc(F)c2)cc(N2CCOCC2)n1`, the cell number change was -19.9%. Besides, the AC50 under setting [2] is 29.1 µM [falling, single point].
On to `O=S(=O)(Cc1nc2ccccc2s1)c1ccccc1`, for which the cell number change was found to be 4.69%. Also, under setting [2], the AC50 was 20.6 µM [rising, single point].
Consider `O=C(CSc1nc(=O)n2ccccc2n1)N1CCN(c2ccccc2)CC1`, for which, under setting [1], the AC50 is 1.84 µM [rising, partial curve, poor fit].
Regarding `Cc1ccc(S(=O)(=O)Nc2cccc(C(=O)NCCN3CCOCC3)c2)cc1F`, the cell number change was -13.1%. Besides, the AC50 under setting [2] was 1.84 µM [falling, partial curve].
